# Results as given in PubChem BioAssay AID540256 (National Center for Advancing Translational Sciences (NCATS), 2011).
# About 3,700 (1.2%) of roughly 300,000 compounds were called active. Inconclusive results, whose numbers are uncertain, are shown with a selection of clear calls. Calls come from the whole dose curve; tested in HEK293 cells. A potency beside an inconclusive call is a rough fit, not a confirmed value.
# Assay: qHTS for Inhibitors of binding or entry into cells for Lassa Virus; note: nearly all actives have a fitted effect of over 50% in size
# Details: Lassa virus pseudotype entry inhibition, cell reporter; activity change, negative = inhibition: at 37.9 µM (top of the series) unless noted
# % is set by controls: 0 for no effect and ±100 for the full control effect; potency is the fitted concentration of half-maximal effect.
SMILES,Potency,"activity change, negative = inhibition"
COc1ccc(CN(C(=O)c2snc(C(N)=O)c2N)C(CC(C)C)C(=O)NC2CCCCC2)cc1 (stereo not given),"inconclusive: 35.5 µM [inhibitor, partial curve, poor fit]",
COc1cccc(N2CCN(C(=O)C3CCCN(S(=O)(=O)c4ccc(Br)s4)C3)CC2)c1 (stereo not given),"inconclusive: 35.5 µM [inhibitor, single point]",
O=C(NCCc1c[nH]c2ccccc12)c1ccc2nc[nH]c2c1,"inconclusive: 7.08 µM [activator, partial curve, poor fit]",
O=C(Nc1ccncc1)c1cc2ccccc2cc1O,"inconclusive: 5.01 µM [activator, partial curve, poor fit]",
C/C(=N\OCc1cccc(C(=O)O)c1)c1ccc(Cl)cc1,"inconclusive: 0.794 µM [inhibitor, full curve, poor fit]",
COc1cccc(NC(=O)COC(=O)c2c3c(nc4ccccc24)CCC(C)C3)c1 (stereo not given),active: 18.3 µM,
O=c1c(O)c(-c2cccs2)oc2ccc(Cl)cc12,,inactive: -2.04%
C=CCN1C(=O)C2(NNc3ccccc3O2)c2ccccc21 (stereo not given),"inconclusive: 17.8 µM [inhibitor, single point]",
CN1CCC2(CC1)N=C(c1ccc(F)cc1)C(=S)N2C(=O)c1ccccc1,"inconclusive: 12.6 µM [inhibitor, partial curve]",
Cc1ccccc1CNC(=O)c1c(C)oc2c1C1=NCCN1C=N2,,inactive: 12.5% [at 46.1 µM]
Cc1cccc(Nc2nc(-c3ccccc3)c(C(=O)Nc3cccnc3)s2)c1,"inconclusive: 15.8 µM [inhibitor, single point]",
CCn1nc(C)c(NC(=O)c2cnn3c(C(F)F)cc(-c4ccccc4)nc23)c1C,"inconclusive: 12.6 µM [inhibitor, partial curve]",
CCOC(=O)C1(Cc2cccc(OC)c2)CCN(Cc2ccccc2)CC1,"inconclusive: 35.5 µM [inhibitor, single point]",
Cc1ccc(N2C(=O)C3C4C=CC(CNC(=S)Nc5ccc(Cl)cc5)(O4)C3C2=O)cc1 (stereo not given),"inconclusive: 29.1 µM [inhibitor, single point]",
CCOC(=O)c1sc(NC(=O)CSc2n[nH]c(CC(C)C)n2)nc1C,"inconclusive: 12.6 µM [inhibitor, partial curve, poor fit]",
Cc1cccc(CC2(O)C(=O)Nc3ccccc32)n1 (stereo not given),"inconclusive: 0.251 µM [inhibitor, full curve, poor fit]",
COc1c(C(=O)Nc2ccc3[nH]c(=O)[nH]c3c2)cc2ccccc2c1Br,"inconclusive: 35.5 µM [inhibitor, single point]",
Cc1ccccc1NC(=S)NCc1ccc2[nH]c3c(c2c1)CCCC3,"inconclusive: 20.6 µM [inhibitor, single point]",
CC1CCc2c(sc3nnn(Cc4ccc(F)cc4)c(=O)c23)C1 (stereo not given),,inactive: -15.7% [at 46.1 µM]
COc1ccc(S(=O)(=O)N(CC(=O)NCC2CCCO2)Cc2ccccc2)cc1C (stereo not given),"inconclusive: 35.5 µM [inhibitor, single point]",
O=C(Nc1ccc2c(c1)CCC2)c1cccc(S(=O)(=O)N2CCN(c3ccc(F)cc3)CC2)c1,"inconclusive: 2.24 µM [inhibitor, partial curve, poor fit]",
Cc1cc(C)cc(OCC(=O)NCC(c2ccc(Cl)cc2)N2CCCCC2)c1 (stereo not given),"inconclusive: 25.1 µM [activator, partial curve, poor fit]",

SMILES,Potency,"activity change, negative = inhibition"
COc1ccccc1-c1nc(-c2ccc(Br)cc2)no1,,inactive: 29.9%
Cc1ccccc1OCCCC(=O)Nc1ccc2c(c1)OCO2,,inactive: -8.23%
COc1ccc(N2CCN(C(=O)CCCNC(=O)Cn3cnc4sc(C)c(C)c4c3=O)CC2)cc1,"inconclusive: 6.31 µM [inhibitor, single point]",
CC(C)(C)NC(=O)c1cccc(NC(=O)c2ccc3c(c2)C(=O)N(C(C)(C)C)C3=O)c1,"inconclusive: 35.5 µM [inhibitor, single point]",
COc1ccc(/C=C/c2nnc(NC(=O)CSc3ccc(C)cc3)s2)cc1,"inconclusive: 5.01 µM [inhibitor, full curve, poor fit]",
O=C1/C(=C/c2ccccc2)NC(=S)N1C(c1ccccc1)c1ccccc1,"inconclusive: 2.51 µM [inhibitor, full curve]",
CCOC(=O)C1(Cc2ccccc2)CCCN(C(=O)C=C(C)C)C1 (stereo not given),,inactive: 5.86% [at 46.1 µM]
NNC(=O)c1cc(Cl)ccc1Cl,"inconclusive: 5.17 µM [inhibitor, partial curve]",
Cc1cc(N2CCCC2)c(F)cc1/C=C\[N+](=O)[O-],"inconclusive: 20 µM [inhibitor, partial curve, poor fit]",
C=CS(=O)(=O)c1sc(Cl)c(N2CCOCC2)c1[N+](=O)[O-],active: 3.16 µM,
O=C(N/N=C/c1ccc(O)cc1)c1csc2ccccc12,"inconclusive: 11.2 µM [inhibitor, partial curve]",
Cc1cc(/C=C2\C(=O)NC(=O)N(Cc3ccco3)C2=O)c(C)n1-c1ccc(O)cc1,,inactive: 0.473% [at 46.1 µM]
O=C(N/N=C/c1ccc(Cl)cc1)Nc1ccccc1,"inconclusive: 3.26 µM [activator, single point]",
CC(C)N1CC=C(c2c[nH]c3ccccc23)CC1,"inconclusive: 0.316 µM [activator, partial curve, poor fit]",
O=C(NC1=NCCS1)c1ccc(-c2ccc(Cl)cc2)o1,"inconclusive: 12.6 µM [inhibitor, single point]",
COc1cc(NC(=S)NC(=O)c2ccc(C(C)(C)C)cc2)ccc1NC(=O)c1cccs1,active: 1.03 µM,
CCC1Sc2ccc(S(=O)(=O)CCC(=O)NC3CCCCCC3)cc2NC1=O (stereo not given),"inconclusive: 14.1 µM [inhibitor, partial curve, poor fit]",
COC(=O)c1ccc(NC(=O)CC2C(=O)N(c3ccc(Cl)cc3)C(=O)N2Cc2cccs2)cc1 (stereo not given),,inactive: -21.7% [at 46.1 µM]
N#Cc1ccc(/C=C/C(=O)c2ccco2)cc1,"inconclusive: 16.4 µM [inhibitor, single point]",
O=C1c2ccccc2C(=O)N1CC1c2ccccc2CCN1S(=O)(=O)c1cnc[nH]1 (stereo not given),"inconclusive: 7.94 µM [activator, partial curve, poor fit]",
COc1ccc(C2Nc3ccccc3C(=O)N2c2ccc(C)cc2)cc1Cn1nnc2ccccc21 (stereo not given),"inconclusive: 18.3 µM [inhibitor, partial curve, poor fit]",
COc1ccc(CCNC(=O)Cn2c(=O)n(-c3ccc(F)cc3F)c(=O)c3sccc32)cc1OC,"inconclusive: 2.51 µM [inhibitor, partial curve, poor fit]",

SMILES,Potency,"activity change, negative = inhibition"
Cc1cc(C)n2nc(SCC(=O)c3cc(C)n(-c4cc(C)on4)c3C)nc2n1,,inactive: -18.1%
COc1ccccc1-c1cc(C(F)(F)F)nc(S(=O)(=O)CCCC(=O)N2CCCCC2C)n1 (stereo not given),"inconclusive: 35.5 µM [inhibitor, single point]",
O=[N+]([O-])c1ccc(Oc2cccc3cccnc23)c([N+](=O)[O-])c1,"inconclusive: 1.78 µM [inhibitor, full curve]",
O=C(NCC(O)c1ccc([N+](=O)[O-])cc1)C1=COCCO1 (stereo not given),,inactive: 1.99%
Cc1ccc(C)c(Cn2c(=O)n(Cc3ccccc3)c(=O)c3c(C)c(C)sc32)c1,,inactive: 7.32% [at 46.1 µM]
CCOC(=O)CCn1nc(-c2ccc(C)cc2)c2ccccc2c1=O,,inactive: -6.3% [at 46.1 µM]
COc1ccc(S(=O)(=O)N2CCOCC2)cc1NC(=O)c1cccc(-n2cccc2)c1,"inconclusive: 1.26 µM [activator, single point]",
CN(C)S(=O)(=O)c1ccc(S(=O)(=O)N(Cc2ccco2)Cc2ccccc2Cl)cc1,"inconclusive: 3.26 µM [inhibitor, partial curve, poor fit]",
CSc1ccc(CN2CCC(n3nccc3NC(=O)CCCc3ccccc3)CC2)cc1,"inconclusive: 15.8 µM [inhibitor, partial curve, poor fit]",
O=C(Nc1cccc(Cl)c1)c1ccc2c(=O)n3c(nc2c1)CCCCC3,"inconclusive: 0.355 µM [activator, partial curve, poor fit]",
O=C(COc1ccc(C(=S)N2CCOCC2)cc1)N1CCOCC1,,inactive: 2.56%
COc1cccc(/C=c2\s/c(=C\C(=O)C(C)(C)C)[nH]c2=O)c1,"inconclusive: 35.5 µM [inhibitor, partial curve, poor fit]",
COc1ccc(OC)c(S(=O)(=O)NCCC2=CCCCC2)c1,"inconclusive: 1.3 µM [activator, partial curve, poor fit]",
O=C(COC(=O)CCCSc1nc2ccccc2[nH]1)NC(=O)NC1CCCC1,"inconclusive: 1.12 µM [activator, full curve, poor fit]",
Cc1cc(C)c(CN2CCC(n3nccc3NC(=O)c3ccccc3Cl)CC2)cc1C,"inconclusive: 15.8 µM [inhibitor, single point]",
CC1CCN(S(=O)(=O)c2ccc(C(=O)N(C)C3CCS(=O)(=O)C3)cc2)CC1 (stereo not given),,inactive: 2.54%
CCN(CC)c1ccc(CNCCc2ccccc2F)cc1,"inconclusive: 35.5 µM [inhibitor, partial curve, poor fit]",
CC1CCN(c2nc3c(S(=O)(=O)c4ccccc4)nnn3c3ccsc23)CC1,,inactive: 6.1% [at 46.1 µM]
Clc1cccc(Cl)c1CSc1nnc(-c2ccncc2)s1,,inactive: -0.0701%
CCS(=O)(=O)Nc1cccc(-c2cc(-c3ccccc3)c3cc(C)ccc3n2)c1,"inconclusive: 8.91 µM [inhibitor, partial curve, poor fit]",
Cc1cc(C)c(C#N)c(SCc2nc3ccccc3c(=O)[nH]2)n1,active: 3.16 µM,

# Some of the entries above, set out differently.
SMILES	Potency	activity change, negative = inhibition
Cc1ccccc1CNC(=O)c1c(C)oc2c1C1=NCCN1C=N2		inactive: 12.5% [at 46.1 µM]
Cc1cccc(Nc2nc(-c3ccccc3)c(C(=O)Nc3cccnc3)s2)c1	inconclusive: 15.8 µM [inhibitor, single point]	
CCn1nc(C)c(NC(=O)c2cnn3c(C(F)F)cc(-c4ccccc4)nc23)c1C	inconclusive: 12.6 µM [inhibitor, partial curve]	
